{"sequences": {"note": "Sequences of proteins named here, by UniProt entry; tags and fusion partners are left off. A change or cut given only in a name is not applied to a line headed by its entry.", "UniProt Q12904": "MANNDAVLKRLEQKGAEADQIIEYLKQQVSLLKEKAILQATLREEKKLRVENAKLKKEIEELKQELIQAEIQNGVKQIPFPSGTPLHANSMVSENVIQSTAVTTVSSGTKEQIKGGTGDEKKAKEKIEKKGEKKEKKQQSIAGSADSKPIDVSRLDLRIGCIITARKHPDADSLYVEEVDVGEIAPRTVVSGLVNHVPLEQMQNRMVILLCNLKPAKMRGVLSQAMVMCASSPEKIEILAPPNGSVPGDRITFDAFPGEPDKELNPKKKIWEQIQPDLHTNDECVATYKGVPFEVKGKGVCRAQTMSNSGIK", "UniProt Q09666": "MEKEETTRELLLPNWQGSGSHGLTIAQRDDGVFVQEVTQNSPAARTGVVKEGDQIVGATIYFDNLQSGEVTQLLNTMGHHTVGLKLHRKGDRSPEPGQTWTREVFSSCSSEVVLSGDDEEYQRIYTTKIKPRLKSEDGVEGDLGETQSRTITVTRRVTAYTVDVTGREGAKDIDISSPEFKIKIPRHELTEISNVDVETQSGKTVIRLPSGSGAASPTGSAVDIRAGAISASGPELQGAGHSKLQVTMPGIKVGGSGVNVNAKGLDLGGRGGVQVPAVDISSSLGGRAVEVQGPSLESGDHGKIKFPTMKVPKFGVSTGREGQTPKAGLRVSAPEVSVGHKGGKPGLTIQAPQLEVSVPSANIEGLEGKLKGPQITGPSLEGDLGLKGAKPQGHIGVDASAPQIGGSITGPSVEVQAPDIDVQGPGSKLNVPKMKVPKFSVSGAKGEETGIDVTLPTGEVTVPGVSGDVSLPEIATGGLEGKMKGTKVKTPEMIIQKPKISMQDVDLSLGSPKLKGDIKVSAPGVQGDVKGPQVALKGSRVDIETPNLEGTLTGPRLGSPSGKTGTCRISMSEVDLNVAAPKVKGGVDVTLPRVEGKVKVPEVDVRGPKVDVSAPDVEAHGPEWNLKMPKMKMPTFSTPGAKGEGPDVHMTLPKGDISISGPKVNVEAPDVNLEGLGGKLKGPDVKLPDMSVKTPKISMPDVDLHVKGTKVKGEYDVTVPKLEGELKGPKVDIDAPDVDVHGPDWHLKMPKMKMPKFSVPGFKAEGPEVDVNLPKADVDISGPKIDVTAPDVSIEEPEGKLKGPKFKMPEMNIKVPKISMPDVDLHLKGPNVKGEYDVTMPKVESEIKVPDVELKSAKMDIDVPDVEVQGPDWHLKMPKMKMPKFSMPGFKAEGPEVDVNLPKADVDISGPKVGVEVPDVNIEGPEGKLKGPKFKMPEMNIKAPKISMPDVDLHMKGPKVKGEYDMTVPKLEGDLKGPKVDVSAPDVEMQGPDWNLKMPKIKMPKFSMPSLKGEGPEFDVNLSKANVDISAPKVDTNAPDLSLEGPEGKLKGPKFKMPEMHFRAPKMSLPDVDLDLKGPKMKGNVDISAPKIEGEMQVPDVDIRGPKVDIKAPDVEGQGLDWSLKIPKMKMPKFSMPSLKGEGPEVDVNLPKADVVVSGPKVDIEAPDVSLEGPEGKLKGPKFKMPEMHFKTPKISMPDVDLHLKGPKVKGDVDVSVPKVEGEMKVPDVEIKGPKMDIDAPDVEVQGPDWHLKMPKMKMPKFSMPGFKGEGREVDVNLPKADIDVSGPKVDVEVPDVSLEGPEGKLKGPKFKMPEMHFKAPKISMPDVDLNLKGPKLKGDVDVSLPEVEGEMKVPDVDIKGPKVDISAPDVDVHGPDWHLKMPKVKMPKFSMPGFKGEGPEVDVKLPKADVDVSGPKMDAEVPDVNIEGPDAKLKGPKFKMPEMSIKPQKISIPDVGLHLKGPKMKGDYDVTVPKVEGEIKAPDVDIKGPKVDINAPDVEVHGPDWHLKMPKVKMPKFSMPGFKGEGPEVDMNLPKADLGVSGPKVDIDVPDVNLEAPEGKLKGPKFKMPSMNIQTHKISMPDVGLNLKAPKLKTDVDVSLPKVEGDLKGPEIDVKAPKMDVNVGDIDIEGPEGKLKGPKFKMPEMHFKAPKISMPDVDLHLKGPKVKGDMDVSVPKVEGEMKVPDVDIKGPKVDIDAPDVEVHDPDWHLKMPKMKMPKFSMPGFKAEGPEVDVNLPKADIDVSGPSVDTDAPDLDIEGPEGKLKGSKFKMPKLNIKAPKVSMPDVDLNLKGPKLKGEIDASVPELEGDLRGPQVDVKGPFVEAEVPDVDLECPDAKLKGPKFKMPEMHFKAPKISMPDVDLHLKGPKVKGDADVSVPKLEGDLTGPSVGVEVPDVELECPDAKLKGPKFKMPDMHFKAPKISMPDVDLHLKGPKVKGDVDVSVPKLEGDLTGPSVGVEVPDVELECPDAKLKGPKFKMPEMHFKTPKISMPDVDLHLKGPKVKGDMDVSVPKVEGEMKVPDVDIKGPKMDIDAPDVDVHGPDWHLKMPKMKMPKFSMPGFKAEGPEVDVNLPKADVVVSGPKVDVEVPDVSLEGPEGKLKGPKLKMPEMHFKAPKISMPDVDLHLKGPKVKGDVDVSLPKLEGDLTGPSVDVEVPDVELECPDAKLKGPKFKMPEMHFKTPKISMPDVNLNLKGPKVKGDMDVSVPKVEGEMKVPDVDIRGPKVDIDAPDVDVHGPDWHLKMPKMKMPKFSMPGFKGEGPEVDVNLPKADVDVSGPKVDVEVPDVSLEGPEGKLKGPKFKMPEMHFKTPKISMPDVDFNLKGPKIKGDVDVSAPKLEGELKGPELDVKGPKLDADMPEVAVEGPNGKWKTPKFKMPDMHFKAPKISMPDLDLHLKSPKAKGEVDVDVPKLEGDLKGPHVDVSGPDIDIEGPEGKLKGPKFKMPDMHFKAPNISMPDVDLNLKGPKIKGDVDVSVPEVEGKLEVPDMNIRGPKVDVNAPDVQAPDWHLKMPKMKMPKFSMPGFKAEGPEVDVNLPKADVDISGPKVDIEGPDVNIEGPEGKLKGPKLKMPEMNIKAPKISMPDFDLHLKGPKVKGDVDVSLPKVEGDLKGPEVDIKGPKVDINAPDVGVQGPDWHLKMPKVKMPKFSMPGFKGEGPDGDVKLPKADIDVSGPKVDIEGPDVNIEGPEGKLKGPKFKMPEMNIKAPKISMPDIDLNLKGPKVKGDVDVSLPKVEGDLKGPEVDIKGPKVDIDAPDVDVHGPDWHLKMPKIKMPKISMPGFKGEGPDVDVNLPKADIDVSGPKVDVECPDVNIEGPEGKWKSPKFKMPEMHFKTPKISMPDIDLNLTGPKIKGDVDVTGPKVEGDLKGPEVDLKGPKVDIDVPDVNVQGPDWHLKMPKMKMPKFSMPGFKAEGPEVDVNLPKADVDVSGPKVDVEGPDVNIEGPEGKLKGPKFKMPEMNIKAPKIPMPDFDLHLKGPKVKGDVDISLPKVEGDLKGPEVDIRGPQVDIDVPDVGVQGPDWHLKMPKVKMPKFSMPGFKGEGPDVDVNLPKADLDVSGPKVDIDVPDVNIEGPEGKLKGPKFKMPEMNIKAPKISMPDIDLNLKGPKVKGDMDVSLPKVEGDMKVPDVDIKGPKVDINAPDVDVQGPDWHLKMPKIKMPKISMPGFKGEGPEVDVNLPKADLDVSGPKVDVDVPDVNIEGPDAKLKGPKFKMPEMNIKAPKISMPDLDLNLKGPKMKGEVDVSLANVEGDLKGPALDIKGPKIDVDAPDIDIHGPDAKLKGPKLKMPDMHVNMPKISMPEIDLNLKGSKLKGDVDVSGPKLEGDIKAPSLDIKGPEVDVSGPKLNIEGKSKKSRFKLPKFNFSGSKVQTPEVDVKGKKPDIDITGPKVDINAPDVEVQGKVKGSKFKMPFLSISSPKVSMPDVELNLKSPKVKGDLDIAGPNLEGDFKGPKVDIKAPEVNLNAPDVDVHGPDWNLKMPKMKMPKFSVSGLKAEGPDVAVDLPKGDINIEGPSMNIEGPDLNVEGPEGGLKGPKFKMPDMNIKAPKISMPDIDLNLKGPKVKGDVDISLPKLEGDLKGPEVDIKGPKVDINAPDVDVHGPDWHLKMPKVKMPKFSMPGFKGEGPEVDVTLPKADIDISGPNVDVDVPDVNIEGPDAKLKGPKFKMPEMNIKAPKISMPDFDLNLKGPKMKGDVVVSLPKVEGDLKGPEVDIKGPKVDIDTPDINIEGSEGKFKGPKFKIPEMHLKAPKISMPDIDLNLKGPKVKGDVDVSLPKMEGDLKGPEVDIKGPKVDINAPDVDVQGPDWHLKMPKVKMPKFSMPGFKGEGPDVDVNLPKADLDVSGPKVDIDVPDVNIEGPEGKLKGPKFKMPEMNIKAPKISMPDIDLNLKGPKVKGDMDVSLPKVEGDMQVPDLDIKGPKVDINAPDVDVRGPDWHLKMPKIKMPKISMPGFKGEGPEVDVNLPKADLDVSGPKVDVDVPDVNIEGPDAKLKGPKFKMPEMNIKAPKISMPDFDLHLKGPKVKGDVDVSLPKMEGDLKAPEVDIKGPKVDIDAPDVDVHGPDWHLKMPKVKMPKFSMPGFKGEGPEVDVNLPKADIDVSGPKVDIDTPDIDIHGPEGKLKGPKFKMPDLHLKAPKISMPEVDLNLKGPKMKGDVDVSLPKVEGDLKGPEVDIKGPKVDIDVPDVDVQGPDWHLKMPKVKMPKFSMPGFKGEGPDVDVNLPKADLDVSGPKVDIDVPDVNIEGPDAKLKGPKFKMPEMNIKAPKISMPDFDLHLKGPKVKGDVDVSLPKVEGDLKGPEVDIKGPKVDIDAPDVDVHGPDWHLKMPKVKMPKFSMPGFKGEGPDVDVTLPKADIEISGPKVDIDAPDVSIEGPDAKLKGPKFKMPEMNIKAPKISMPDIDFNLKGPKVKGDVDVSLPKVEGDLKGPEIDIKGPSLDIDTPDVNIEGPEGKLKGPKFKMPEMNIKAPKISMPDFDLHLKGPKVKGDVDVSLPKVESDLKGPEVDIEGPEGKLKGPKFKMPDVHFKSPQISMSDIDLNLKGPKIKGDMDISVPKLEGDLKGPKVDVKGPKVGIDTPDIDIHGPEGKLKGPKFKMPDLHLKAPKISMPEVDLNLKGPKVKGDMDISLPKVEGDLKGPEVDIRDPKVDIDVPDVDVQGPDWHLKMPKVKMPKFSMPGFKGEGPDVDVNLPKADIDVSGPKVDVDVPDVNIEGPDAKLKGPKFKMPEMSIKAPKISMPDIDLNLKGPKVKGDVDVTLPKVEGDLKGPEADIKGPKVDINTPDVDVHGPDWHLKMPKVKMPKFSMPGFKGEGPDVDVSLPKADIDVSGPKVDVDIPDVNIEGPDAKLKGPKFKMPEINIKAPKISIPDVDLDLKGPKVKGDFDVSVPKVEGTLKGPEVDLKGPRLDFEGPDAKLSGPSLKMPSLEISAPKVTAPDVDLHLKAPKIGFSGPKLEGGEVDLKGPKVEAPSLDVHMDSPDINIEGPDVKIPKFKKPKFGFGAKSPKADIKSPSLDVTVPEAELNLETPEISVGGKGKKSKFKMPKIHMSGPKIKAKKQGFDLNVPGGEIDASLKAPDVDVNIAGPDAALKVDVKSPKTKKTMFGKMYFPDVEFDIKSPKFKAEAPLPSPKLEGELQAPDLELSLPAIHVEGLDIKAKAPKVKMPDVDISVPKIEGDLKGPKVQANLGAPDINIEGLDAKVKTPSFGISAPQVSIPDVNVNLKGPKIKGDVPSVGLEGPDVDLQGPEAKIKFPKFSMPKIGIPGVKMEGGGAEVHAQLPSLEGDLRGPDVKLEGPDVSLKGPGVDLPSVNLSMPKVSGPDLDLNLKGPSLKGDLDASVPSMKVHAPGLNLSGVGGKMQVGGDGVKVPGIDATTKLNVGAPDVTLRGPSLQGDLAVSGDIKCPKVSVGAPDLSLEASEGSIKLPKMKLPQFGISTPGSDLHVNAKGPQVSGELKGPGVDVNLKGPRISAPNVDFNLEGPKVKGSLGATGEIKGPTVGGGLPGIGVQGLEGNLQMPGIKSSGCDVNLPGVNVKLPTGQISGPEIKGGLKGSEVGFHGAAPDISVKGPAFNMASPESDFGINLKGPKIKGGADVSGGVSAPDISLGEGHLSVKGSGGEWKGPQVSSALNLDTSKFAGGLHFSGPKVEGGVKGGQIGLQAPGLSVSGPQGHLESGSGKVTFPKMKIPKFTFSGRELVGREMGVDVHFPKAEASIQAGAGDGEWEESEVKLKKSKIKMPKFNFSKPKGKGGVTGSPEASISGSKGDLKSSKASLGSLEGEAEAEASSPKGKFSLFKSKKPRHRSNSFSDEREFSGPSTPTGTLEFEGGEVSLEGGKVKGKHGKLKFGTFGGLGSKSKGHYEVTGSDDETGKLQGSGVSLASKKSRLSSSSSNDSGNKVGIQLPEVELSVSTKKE", "UniProt P55263": "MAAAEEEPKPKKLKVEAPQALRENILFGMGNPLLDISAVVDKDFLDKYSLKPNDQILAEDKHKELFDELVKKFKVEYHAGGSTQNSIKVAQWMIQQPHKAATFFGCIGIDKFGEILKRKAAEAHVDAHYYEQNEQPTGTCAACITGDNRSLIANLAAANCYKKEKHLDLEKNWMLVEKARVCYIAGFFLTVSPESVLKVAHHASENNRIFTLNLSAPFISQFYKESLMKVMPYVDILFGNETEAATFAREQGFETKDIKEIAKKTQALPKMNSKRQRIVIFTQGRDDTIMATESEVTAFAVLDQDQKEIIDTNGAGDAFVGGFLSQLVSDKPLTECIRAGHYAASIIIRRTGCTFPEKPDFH"}, "source": "the supplement of paper PMC10849652", "test_in_all_cases": "log2 fold change, soluble protein after heating vs DMSO (PISA); higher = thermal stabilisation; K562 lysate, 10 uM; active = over 0.2 and 3.5 SD of the protein, either way, in both replicates (recomputed)", "key": {"[1]": {"compound": "NCC(=O)Nc1ccc(-n2nc(C(F)(F)F)cc2-c2ccc3c(ccc4ccccc43)c2)cc1", "method_in_brief": "(§1)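 Quantification was by TMTpro 16plex LC-MS/MS with equalised channel sums, applied to the supernatant after 21,000xg for 90 min. Samples were crude K562 extract at 1 mg/mL protein in PBS pH 7.4 with 1 mM MgCl2, treated with 10 μM compound for 30 min, heated for 3 min across 48°C-58°C, pooled and brought to 0.5% NP-40 at 4°C. Values are log-two fold changes in thermal stability relative to solvent controls, from duplicates.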"}, "[2]": {"compound": "O=C(CCCCCCC(=O)Nc1ccccc1)NO [vorinostat]", "method_in_brief": "as §1"}, "[3]": {"compound": "O=C(O)c1ccc2c(c1)nc(Nc1cccc(Cl)c1)c1ccncc12 [silmitasertib]", "method_in_brief": "as §1"}, "[4]": {"compound": "O=C1NC(=O)C(c2cnc3ccccn23)=C1c1cn2c3c(cc(F)cc13)CN(C(=O)N1CCCCC1)CC2", "method_in_brief": "as §1"}, "[5]": {"compound": "c1cn2cc(-c3ccc4cn[nH]c4c3)nc(Nc3ccc(N4CCOCC4)cc3)c2n1 [entospletinib]", "method_in_brief": "as §1"}}, "note": "The other results are listed elsewhere or left out."}
{"target": "ADGRE2 (UniProt Q9UHX3)", "values": [{"measurement": "log2 fold change", "setting": "[1]", "result": "inactive: -0.045"}, {"measurement": "log2 fold change", "setting": "[2]", "result": "inactive: 0.195"}, {"measurement": "log2 fold change", "setting": "[3]", "result": "inactive: -0.041"}, {"measurement": "log2 fold change", "setting": "[4]", "result": "inactive: -0.013"}, {"measurement": "log2 fold change", "setting": "[5]", "result": "inactive: -0.024"}]}
{"target": "AIMP1 isoform 2 (UniProt Q12904)", "values": [{"measurement": "log2 fold change", "setting": "[1]", "result": "inactive: -0.01"}, {"measurement": "log2 fold change", "setting": "[2]", "result": "active: -0.235"}, {"measurement": "log2 fold change", "setting": "[3]", "result": "inactive: 0.02"}, {"measurement": "log2 fold change", "setting": "[4]", "result": "inactive: 0.007"}, {"measurement": "log2 fold change", "setting": "[5]", "result": "inactive: 0.02"}]}
{"target": "AKR1C2 (UniProt P52895)", "values": [{"measurement": "log2 fold change", "setting": "[1]", "result": "inactive: -0.008"}, {"measurement": "log2 fold change", "setting": "[2]", "result": "active: 0.504"}, {"measurement": "log2 fold change", "setting": "[3]", "result": "inactive: -0.011"}, {"measurement": "log2 fold change", "setting": "[4]", "result": "inactive: 0.052"}, {"measurement": "log2 fold change", "setting": "[5]", "result": "inactive: -0.014"}]}
{"target": "ACOT8 (UniProt O14734)", "values": [{"measurement": "log2 fold change", "setting": "[1]", "result": "inactive: -0.006"}, {"measurement": "log2 fold change", "setting": "[2]", "result": "inactive: 0.063"}, {"measurement": "log2 fold change", "setting": "[3]", "result": "inactive: 0.032"}, {"measurement": "log2 fold change", "setting": "[4]", "result": "inactive: -0.003"}, {"measurement": "log2 fold change", "setting": "[5]", "result": "inactive: -0.044"}]}
{"target": "AHNAK (UniProt Q09666)", "values": [{"measurement": "log2 fold change", "setting": "[1]", "result": "inactive: 0.014"}, {"measurement": "log2 fold change", "setting": "[2]", "result": "inactive: 0.064"}, {"measurement": "log2 fold change", "setting": "[3]", "result": "inactive: -0.02"}, {"measurement": "log2 fold change", "setting": "[4]", "result": "inactive: 0.009"}, {"measurement": "log2 fold change", "setting": "[5]", "result": "inactive: -0.001"}]}
{"target": "ACOX1 isoform 2 (UniProt Q15067)", "values": [{"measurement": "log2 fold change", "setting": "[1]", "result": "inactive: 0.009"}, {"measurement": "log2 fold change", "setting": "[2]", "result": "inactive: 0.09"}, {"measurement": "log2 fold change", "setting": "[3]", "result": "inactive: 0.009"}, {"measurement": "log2 fold change", "setting": "[4]", "result": "inactive: 0.04"}, {"measurement": "log2 fold change", "setting": "[5]", "result": "inactive: -0.012"}]}
{"target": "ADK (UniProt P55263)", "values": [{"measurement": "log2 fold change", "setting": "[1]", "result": "inactive: -0.049"}, {"measurement": "log2 fold change", "setting": "[2]", "result": "inactive: -0.052"}, {"measurement": "log2 fold change", "setting": "[3]", "result": "inactive: 0.073"}, {"measurement": "log2 fold change", "setting": "[4]", "result": "inactive: 0.262"}, {"measurement": "log2 fold change", "setting": "[5]", "result": "inactive: -0.027"}]}
{"target": "ADSS2 (UniProt P30520)", "values": [{"measurement": "log2 fold change", "setting": "[1]", "result": "inactive: 0.002"}, {"measurement": "log2 fold change", "setting": "[2]", "result": "inactive: 0.004"}, {"measurement": "log2 fold change", "setting": "[3]", "result": "inactive: -0.003"}, {"measurement": "log2 fold change", "setting": "[4]", "result": "inactive: -0.003"}, {"measurement": "log2 fold change", "setting": "[5]", "result": "inactive: 0.007"}]}
{"target": "ADAT3 (UniProt Q96EY9)", "values": [{"measurement": "log2 fold change", "setting": "[1]", "result": "inactive: 0.032"}, {"measurement": "log2 fold change", "setting": "[2]", "result": "inactive: -0.053"}, {"measurement": "log2 fold change", "setting": "[3]", "result": "inactive: 0.04"}, {"measurement": "log2 fold change", "setting": "[4]", "result": "inactive: 0.019"}, {"measurement": "log2 fold change", "setting": "[5]", "result": "inactive: 0.008"}]}
{"target": "AHCYL1 (UniProt O43865)", "values": [{"measurement": "log2 fold change", "setting": "[1]", "result": "inactive: 0.021"}, {"measurement": "log2 fold change", "setting": "[2]", "result": "active: -0.287"}, {"measurement": "log2 fold change", "setting": "[3]", "result": "inactive: -0.021"}, {"measurement": "log2 fold change", "setting": "[4]", "result": "inactive: 0.045"}, {"measurement": "log2 fold change", "setting": "[5]", "result": "inactive: -0.03"}]}
